This note sets out measurements from publication PMC7585118.

Amino acid sequences for entries named in this document (tags omitted).
UniProt Q96P20: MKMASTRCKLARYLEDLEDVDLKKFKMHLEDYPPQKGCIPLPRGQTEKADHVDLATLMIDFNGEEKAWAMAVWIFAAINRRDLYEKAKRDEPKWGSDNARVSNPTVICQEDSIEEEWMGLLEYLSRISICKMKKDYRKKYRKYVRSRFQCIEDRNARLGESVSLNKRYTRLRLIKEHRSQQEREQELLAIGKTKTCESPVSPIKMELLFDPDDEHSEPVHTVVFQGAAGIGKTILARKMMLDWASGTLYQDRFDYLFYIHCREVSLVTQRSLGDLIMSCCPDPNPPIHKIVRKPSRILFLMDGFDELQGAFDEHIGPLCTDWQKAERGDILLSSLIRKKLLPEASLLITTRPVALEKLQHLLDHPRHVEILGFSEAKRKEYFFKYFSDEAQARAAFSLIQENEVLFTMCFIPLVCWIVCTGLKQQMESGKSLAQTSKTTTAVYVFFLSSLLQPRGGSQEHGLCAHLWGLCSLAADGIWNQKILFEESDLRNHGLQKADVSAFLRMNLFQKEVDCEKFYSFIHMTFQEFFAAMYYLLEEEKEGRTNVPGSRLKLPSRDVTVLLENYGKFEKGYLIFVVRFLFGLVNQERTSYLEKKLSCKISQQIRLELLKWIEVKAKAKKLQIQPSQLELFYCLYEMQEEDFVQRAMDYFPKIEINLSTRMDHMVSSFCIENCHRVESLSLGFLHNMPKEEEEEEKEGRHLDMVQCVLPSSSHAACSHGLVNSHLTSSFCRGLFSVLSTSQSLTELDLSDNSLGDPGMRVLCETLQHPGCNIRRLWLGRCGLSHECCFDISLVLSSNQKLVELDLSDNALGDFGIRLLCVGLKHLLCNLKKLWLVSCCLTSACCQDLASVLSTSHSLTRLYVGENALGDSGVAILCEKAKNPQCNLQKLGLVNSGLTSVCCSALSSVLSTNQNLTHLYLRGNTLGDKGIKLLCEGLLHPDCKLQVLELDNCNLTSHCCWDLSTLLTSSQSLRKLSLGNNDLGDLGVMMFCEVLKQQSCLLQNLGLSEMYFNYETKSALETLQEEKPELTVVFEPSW

For this experiment, the target named is NLRP3 (human (endogenous in THP-1)) (UniProt Q96P20). The experiment in a line: co-IP; endogenous proteins in THP-1 cells primed with LPS 4 h and stimulated with ATP 30 min (with or without GPA 6 h before ATP); cells lysed in IP buffer, IP-grade antibodies, protein A/G beads, immunoblot. (In general: A western blot detects proteins with antibodies after separation by electrophoresis.)

These are yes or no findings as the source states them, for the method shown. Binding seen in cells or lysates may run through a third protein. Some entries that bind do so weakly or less than the wild type.

B1: GSDMD (protein, UniProt P57764 1-484)
chain: MGSAFERVVRRVVQELDHGGEFIPVTSLQSSTGFQPYCLVVRKPSSSWFWKPRYKCVNLSIKDILEPDAAEPDVQRGRSFHFYDAMDGQIQGSVELAAPGQAKIAGGAAVSDSSSTSMNVYSLSVDPNTWQTLLHERHLRQPEHKVLQQLRSRGDNVYVVTEVLQTQKEVEVTRTHKREGSGRFSLPGATCLQGEGQGHLSQKKTVTIPSGSTLAFRVAQLVIDSDLDVLLFPDKKQRTFQPPATGHKRSTSEGAWPQLPSGLSMMRCLHNFLTDGVPAEGAFTEDFQGLRAEVETISKELELLDRELCQLLLEGLEGVLRDQLALRALEEALEQGQSLGPVEPLDGPAGAVLECLVLSSGMLVPELAIPVVYLLGALTMLSETQHKLLAEALESQTLLGPLELVGSLLEQSAPWQERSTMSLPPGLLGNSWGEGAPAWVLLDECGLELGEDTPHVCWEPQAQGRMCALYASLALLSGLSQEPH
On to B1, for which the binding entry is “binds”.
